Data: the supplement of paper PMC8728848
Some of the results follow.

How the values were obtained:
Assay in all cases: glycan array binding signal (z-score within array); higher = stronger binding
Details in all cases: glycan notation: IUPAC condensed, linker removed
[1] = molecular target: Fuc(a1-3)[GalNAc(b1-4)]GlcNAc6S
In short: (§1)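 The binding signal is a Z-score computed within each array and averaged over linkers. Arrays of the same protein sequence at different concentrations or buffers were also averaged together. Data originate from 3228 arrays in the Consortium for Functional Glycomics database, kept only where the protein sequence was available.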

Fuc(a1-4)GlcNAc = molecular target: Fuc(a1-4)GlcNAc
In short: as §1

Fuc(b1-3)GlcNAc = molecular target: Fuc(b1-3)GlcNAc
In short: as §1

Gal(a1-2)Gal = molecular target: Gal(a1-2)Gal
In short: as §1

Gal(a1-3)Gal = molecular target: Gal(a1-3)Gal
In short: as §1

Gal(a1-3)Gal(b1-3)GlcNAc = molecular target: Gal(a1-3)Gal(b1-3)GlcNAc
In short: as §1

[2] = molecular target: Gal(a1-3)Gal(b1-3)GlcNAc(b1-2)Man
In short: as §1

[3] = molecular target: Gal(a1-3)Gal(b1-3)GlcNAc(b1-2)Man(a1-3)[Gal(a1-3)Gal(b1-3)GlcNAc(b1-2)Man(a1-6)]Man(b1-4)GlcNAc(b1-4)GlcNAc
In short: as §1

[4] = molecular target: Gal(a1-3)Gal(b1-3)GlcNAc(b1-3)GalNAc
In short: as §1

[5] = molecular target: Gal(a1-3)Gal(b1-3)GlcNAc(b1-6)GalNAc
In short: as §1

[6] = molecular target: Gal(a1-3)Gal(b1-3)[Fuc(a1-4)]GlcNAc(b1-2)Man(a1-3)[Gal(a1-3)Gal(b1-3)[Fuc(a1-4)]GlcNAc(b1-2)Man(a1-6)]Man(b1-4)GlcNAc(b1-4)GlcNAc
In short: as §1

Gal(a1-3)Gal(b1-4)Glc = molecular target: Gal(a1-3)Gal(b1-4)Glc
In short: as §1

Gal(a1-3)Gal(b1-4)GlcNAc = molecular target: Gal(a1-3)Gal(b1-4)GlcNAc
In short: as §1

[7] = molecular target: Gal(a1-3)Gal(b1-4)GlcNAc(b1-2)Man
In short: as §1

[8] = molecular target: Gal(a1-3)Gal(b1-4)GlcNAc(b1-2)Man(a1-3)[Gal(a1-3)Gal(b1-4)GlcNAc(b1-2)Man(a1-6)]Man(b1-4)GlcNAc(b1-4)GlcNAc
In short: as §1

[9] = molecular target: Gal(a1-3)Gal(b1-4)GlcNAc(b1-3)GalNAc
In short: as §1

[10] = molecular target: Gal(a1-3)Gal(b1-4)GlcNAc(b1-6)GalNAc
In short: as §1

[11] = molecular target: Gal(a1-3)Gal(b1-4)[Fuc(a1-3)]GlcNAc
In short: as §1

[12] = molecular target: Gal(a1-3)Gal(b1-4)[Fuc(a1-3)]GlcNAc(b1-2)Man(a1-3)[Gal(a1-3)Gal(b1-4)[Fuc(a1-3)]GlcNAc(b1-2)Man(a1-6)]Man(b1-4)GlcNAc(b1-4)GlcNAc
In short: as §1

Gal(a1-3)GalNAc = molecular target: Gal(a1-3)GalNAc
In short: as §1

[13] = molecular target: Gal(a1-3)[Gal(a1-4)]Gal(b1-4)GlcNAc
In short: as §1

[14] = molecular target: Gal(a1-4)Gal(b1-3)GlcNAc(b1-2)Man(a1-3)[Gal(a1-4)Gal(b1-3)GlcNAc(b1-2)Man(a1-6)]Man(b1-4)GlcNAc(b1-4)GlcNAc
In short: as §1

Gal(a1-4)Gal(b1-4)Glc = molecular target: Gal(a1-4)Gal(b1-4)Glc
In short: as §1

Gal(a1-4)Gal(b1-4)GlcNAc = molecular target: Gal(a1-4)Gal(b1-4)GlcNAc
In short: as §1

[15] = molecular target: Gal(a1-4)Gal(b1-4)GlcNAc(b1-2)Man(a1-3)[Gal(a1-4)Gal(b1-4)GlcNAc(b1-2)Man(a1-6)]Man(b1-4)GlcNAc(b1-4)GlcNAc
In short: as §1

[16] = molecular target: Gal(a1-4)Gal(b1-4)GlcNAc(b1-3)Gal(b1-4)Glc
In short: as §1

Gal(a1-4)GlcNAc = molecular target: Gal(a1-4)GlcNAc
In short: as §1

Gal(a1-6)Glc = molecular target: Gal(a1-6)Glc
In short: as §1

Gal(b1-2)Gal = molecular target: Gal(b1-2)Gal
In short: as §1

Gal(b1-3)Gal = molecular target: Gal(b1-3)Gal
In short: as §1

Gal(b1-3)Gal(b1-4)GlcNAc = molecular target: Gal(b1-3)Gal(b1-4)GlcNAc
In short: as §1

[17] = molecular target: Gal(b1-3)Gal(b1-4)GlcNAc(b1-2)Man(a1-3)[Gal(b1-3)Gal(b1-4)GlcNAc(b1-2)Man(a1-6)]Man(b1-4)GlcNAc(b1-4)GlcNAc
In short: as §1

Gal(b1-3)GalNAc = molecular target: Gal(b1-3)GalNAc
In short: as §1

[18] = molecular target: Gal(b1-3)GalNAc(a1-3)[Fuc(a1-2)]Gal(b1-4)Glc
In short: as §1

[19] = molecular target: Gal(b1-3)GalNAc(a1-3)[Fuc(a1-2)]Gal(b1-4)GlcNAc
In short: as §1

Gal(b1-3)GalNAc(b1-3)Gal = molecular target: Gal(b1-3)GalNAc(b1-3)Gal
In short: as §1

[20] = molecular target: Gal(b1-3)GalNAc(b1-3)Gal(a1-4)Gal(b1-4)Glc
In short: as §1

[21] = molecular target: Gal(b1-3)GalNAc(b1-4)Gal(b1-4)Glc
In short: as §1

B1: Gal 12 (Homo sapiens), Q96DT0 (protein)
chain: MSQPSGGRAPGTRIYSWSCPTVMSPGEKLDPIPDSFILQPPVFHPVVPYVTTIFGGLHAGKMVMLQGVVPLDAHRFQVDFQCGCSLCPRPDIAFHFNPRFHTTKPHVICNTLHGGRWQREARWPHLALRRGSSFLILFLFGNEEVKVSVNGQHFLHFRYRLPLSHVDTLGIFGDILVEAVGFLNINPFVEGSREYPAGHPFLLMSPRLEVPCSHALPQGLSPGQVIIVRGLVLQEPKHFTVSLRDQAAHAPVTLRASFADRTLAWISRWGQKKLISAPFLFYPQRFFEVLLLFQEGGLKLALNGQGLGATSMNQQALEQLRELRISGSVQLYCVHS
- glycan array binding signal (z-score) [1]: -0.584
- glycan array binding signal (z-score) (Fuc(a1-4)GlcNAc): 0.116
- glycan array binding signal (z-score) (Fuc(b1-3)GlcNAc): -0.119
- glycan array binding signal (z-score) (Gal(a1-2)Gal): -0.863
- glycan array binding signal (z-score) (Gal(a1-3)Gal): -0.212
- glycan array binding signal (z-score) (Gal(a1-3)Gal(b1-3)GlcNAc): 0.367
- glycan array binding signal (z-score) [2]: 0.199
- glycan array binding signal (z-score) [3]: 0.642
- glycan array binding signal (z-score) [4]: -0.275
- glycan array binding signal (z-score) [5]: -0.189
- glycan array binding signal (z-score) [6]: -0.493
- glycan array binding signal (z-score) (Gal(a1-3)Gal(b1-4)Glc): -0.527
- glycan array binding signal (z-score) (Gal(a1-3)Gal(b1-4)GlcNAc): 0.262
- glycan array binding signal (z-score) [7]: -0.434
- glycan array binding signal (z-score) [8]: -1.25
- glycan array binding signal (z-score) [9]: -0.345
- glycan array binding signal (z-score) [10]: -0.68
- glycan array binding signal (z-score) [11]: -0.247
- glycan array binding signal (z-score) [12]: 0.735
- glycan array binding signal (z-score) (Gal(a1-3)GalNAc): 0.351
- glycan array binding signal (z-score) [13]: 1.74
- glycan array binding signal (z-score) [14]: -0.552
- glycan array binding signal (z-score) (Gal(a1-4)Gal(b1-4)Glc): 1.26
- glycan array binding signal (z-score) (Gal(a1-4)Gal(b1-4)GlcNAc): -0.049
- glycan array binding signal (z-score) [15]: -0.524
- glycan array binding signal (z-score) [16]: -0.464
- glycan array binding signal (z-score) (Gal(a1-4)GlcNAc): -0.61
- glycan array binding signal (z-score) (Gal(a1-6)Glc): -0.527
- glycan array binding signal (z-score) (Gal(b1-2)Gal): 1.35
- glycan array binding signal (z-score) (Gal(b1-3)Gal): -0.751
- glycan array binding signal (z-score) (Gal(b1-3)Gal(b1-4)GlcNAc): -0.117
- glycan array binding signal (z-score) [17]: -0.507
- glycan array binding signal (z-score) (Gal(b1-3)GalNAc): -0.168
- glycan array binding signal (z-score) [18]: -0.173
- glycan array binding signal (z-score) [19]: -0.072
- glycan array binding signal (z-score) (Gal(b1-3)GalNAc(b1-3)Gal): -1.05
- glycan array binding signal (z-score) [20]: -0.445
- glycan array binding signal (z-score) [21]: -0.018
